Consider one compound from US20120129834A1, “SEROTONIN RECEPTOR ANTAGONISTS FOR USE IN THE TREATMENT OF HUNTINGTON'S DISEASE” (BUCK INSTITUTE FOR RESEARCH ON AGING, priority 2010, published 2012).

The assay has as its system caspase-3/7. Kind of assay: caspase activation assay, STHdh111Q/111Q serum deprivation model. Format: cell-based. The settings on record: dose/response, FIG. 17 lower panel, n=3/dose.

`CN1CCC(=C2c3ccccc3C=Cc3ccccc32)CC1.Cl` [Cyproheptadine, 4-(5H-dibenzo[a,d]cyclohepten-5-ylidene)-1-methylpiperidine hydrochloride]: the caspase-3/7 activation result is on record as “rescue”.
